# Source: the supplement of paper PMC8728848
# The other results are listed elsewhere or left out.
# B1: Blon2355mut (Bifidobacterium longum) (protein)
# chain: MVQEPTLEWHVIPEPTNVEPLVGTCSLPLSGTVVEQRGADDAEAVFARQLVDDIKRVCGGRWQVASGEVQREVTLRTSPSLDDWSYVLEVSPDGVVITGSGFEGVRDGVQTLRQIIRQIGLTIPCMVIRDRPAFSTRGYYLDVTRGRVPSMAWLKSWVDRLCFYKYNQFQLYIEHTFQFNGLSEVWRGADPLTSSDILELDSYCAARGIELVPSVSTFGHHYTALRTRQLRDLGEFPEDADRPFSLIERMTHHTLNITDERSYEFSTSLIDELMPLFRSRKFNICANETFDLGKGRSKQESAKRGVGAMYADFVERLCRHVDDRGHDVMVWADVALEHPEIIDTLPKNITWLNWQYEPNVDDGTTAALADAGATQMVCPAVWCWNALIPRIDDAWNNITRMARHGRAHDVSGMLVTDWGDFGHVNDPRMSVPGMIFGAQQSWNPDAELSEVDMLSRISTIEYGDHTGSVVGALRGASAKGGFSWSDLVTYLELDDGRGGCNTEIVRVMGCLEAYRNDLPQSGQARLADARVSMLRTLRDSILAGRELNGKLDDAAKDITQLLRVAGDPSSAAVWSLAIDGQRLLNRVGLALLAAHGVVRQDEAGIDAAKLADELECWTEQYSRLWHEVSRQSELARIQHVVWRAADVLRSI
# Experiments:
# Experiment in all cases: glycan array binding signal (z-score within array); higher = stronger binding
# Settings in all cases: glycan notation: IUPAC condensed, linker removed
# Gal3S(b1-4)Glc6S = target: Gal3S(b1-4)Glc6S
# Procedure, shortened: (§1)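 Columns mapping to the same glycan were averaged after glycan names were converted to IUPAC-condensed notation. The data come from 3228 arrays in the Consortium for Functional Glycomics database, limited to those with an available protein sequence. Binding is reported as a within-array Z-score averaged across arrays of one protein sequence and across linkers.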
# Gal3S(b1-4)GlcNAc = target: Gal3S(b1-4)GlcNAc
# Procedure, shortened: as §1
# [1] = target: Gal3S(b1-4)[Fuc(a1-3)]Glc6S
# Procedure, shortened: as §1
# [2] = target: Gal3S(b1-4)[Fuc(a1-3)]GlcNAc
# Procedure, shortened: as §1
# [3] = target: Gal3S(b1-4)[Fuc(a1-3)]GlcNAc6S
# Procedure, shortened: as §1
# Gal3S4S(b1-4)GlcNAc = target: Gal3S4S(b1-4)GlcNAc
# Procedure, shortened: as §1
# Gal3S6S(b1-4)GlcNAc = target: Gal3S6S(b1-4)GlcNAc
# Procedure, shortened: as §1
# Gal3S6S(b1-4)GlcNAc6S = target: Gal3S6S(b1-4)GlcNAc6S
# Procedure, shortened: as §1
# Gal4S(b1-4)GlcNAc = target: Gal4S(b1-4)GlcNAc
# Procedure, shortened: as §1
# Gal4S6S(b1-4)GlcNAc = target: Gal4S6S(b1-4)GlcNAc
# Procedure, shortened: as §1
# Gal6P(b1-4)GlcNAc = target: Gal6P(b1-4)GlcNAc
# Procedure, shortened: as §1
# Gal6S(b1-3)GlcNAc = target: Gal6S(b1-3)GlcNAc
# Procedure, shortened: as §1
# Gal6S(b1-3)GlcNAc6S = target: Gal6S(b1-3)GlcNAc6S
# Procedure, shortened: as §1
# Gal6S(b1-4)Glc = target: Gal6S(b1-4)Glc
# Procedure, shortened: as §1
# Gal6S(b1-4)Glc6S = target: Gal6S(b1-4)Glc6S
# Procedure, shortened: as §1
# Gal6S(b1-4)GlcNAc = target: Gal6S(b1-4)GlcNAc
# Procedure, shortened: as §1
# Gal6S(b1-4)GlcNAc6S = target: Gal6S(b1-4)GlcNAc6S
# Procedure, shortened: as §1
# GalNAc(a1-3)Gal = target: GalNAc(a1-3)Gal
# Procedure, shortened: as §1
# GalNAc(a1-3)GalNAc = target: GalNAc(a1-3)GalNAc
# Procedure, shortened: as §1
# [4] = target: GalNAc(a1-3)GalNAc(a1-3)Gal(a1-4)Gal(b1-4)GlcNAc
# Procedure, shortened: as §1
# [5] = target: GalNAc(a1-3)GalNAc(b1-3)Gal(a1-4)Gal(b1-4)Glc
# Procedure, shortened: as §1
# GalNAc(b1-3)Gal = target: GalNAc(b1-3)Gal
# Procedure, shortened: as §1
# [6] = target: GalNAc(b1-3)Gal(a1-4)Gal(b1-4)GlcNAc
# Procedure, shortened: as §1
# [7] = target: GalNAc(b1-3)Gal(a1-4)Gal(b1-4)GlcNAc(b1-3)Gal(b1-4)Glc
# Procedure, shortened: as §1
# [8] = target: GalNAc(b1-3)Gal(a1-6)Gal(b1-4)Glc
# Procedure, shortened: as §1
# GalNAc(b1-3)GalNAc = target: GalNAc(b1-3)GalNAc
# Procedure, shortened: as §1
# GalNAc(b1-3)GlcNAc = target: GalNAc(b1-3)GlcNAc
# Procedure, shortened: as §1
# GalNAc(b1-4)Gal(b1-4)Glc = target: GalNAc(b1-4)Gal(b1-4)Glc
# Procedure, shortened: as §1
# GalNAc(b1-4)GlcNAc = target: GalNAc(b1-4)GlcNAc
# Procedure, shortened: as §1
# [9] = target: GalNAc(b1-4)GlcNAc(b1-2)Man
# Procedure, shortened: as §1
binder,measurement,setting,value
B1,glycan array binding signal (z-score),Gal3S(b1-4)Glc6S,-0.345
same,glycan array binding signal (z-score),Gal3S(b1-4)GlcNAc,-0.393
same,glycan array binding signal (z-score),[1],3.52
same,glycan array binding signal (z-score),[2],0.971
same,glycan array binding signal (z-score),[3],0.587
same,glycan array binding signal (z-score),Gal3S4S(b1-4)GlcNAc,-0.808
same,glycan array binding signal (z-score),Gal3S6S(b1-4)GlcNAc,1.32
same,glycan array binding signal (z-score),Gal3S6S(b1-4)GlcNAc6S,1.03
same,glycan array binding signal (z-score),Gal4S(b1-4)GlcNAc,0.268
same,glycan array binding signal (z-score),Gal4S6S(b1-4)GlcNAc,0.175
same,glycan array binding signal (z-score),Gal6P(b1-4)GlcNAc,-0.404
same,glycan array binding signal (z-score),Gal6S(b1-3)GlcNAc,-0.433
same,glycan array binding signal (z-score),Gal6S(b1-3)GlcNAc6S,0.212
same,glycan array binding signal (z-score),Gal6S(b1-4)Glc,0.304
same,glycan array binding signal (z-score),Gal6S(b1-4)Glc6S,1.48
same,glycan array binding signal (z-score),Gal6S(b1-4)GlcNAc,1.32
same,glycan array binding signal (z-score),Gal6S(b1-4)GlcNAc6S,-1.15
same,glycan array binding signal (z-score),GalNAc(a1-3)Gal,-0.046
same,glycan array binding signal (z-score),GalNAc(a1-3)GalNAc,-0.381
same,glycan array binding signal (z-score),[4],-0.873
same,glycan array binding signal (z-score),[5],-1.15
same,glycan array binding signal (z-score),GalNAc(b1-3)Gal,-0.861
same,glycan array binding signal (z-score),[6],1.4
same,glycan array binding signal (z-score),[7],-0.283
same,glycan array binding signal (z-score),[8],-0.583
same,glycan array binding signal (z-score),GalNAc(b1-3)GalNAc,-0.665
same,glycan array binding signal (z-score),GalNAc(b1-3)GlcNAc,0.179
same,glycan array binding signal (z-score),GalNAc(b1-4)Gal(b1-4)Glc,-0.204
same,glycan array binding signal (z-score),GalNAc(b1-4)GlcNAc,3.04
same,glycan array binding signal (z-score),[9],0.782

# Another view of some results above.
binder	measurement	setting	value
B1	glycan array binding signal (z-score)	Gal6S(b1-4)Glc6S	1.48
same	glycan array binding signal (z-score)	Gal6S(b1-4)GlcNAc	1.32
